The other results are listed elsewhere or left out.
Key:
Test in all cases: log2 fold change, soluble protein after heating vs DMSO (PISA); higher = thermal stabilisation; K562 cells, 10 uM, 30 min; active = over 0.2 and 3.5 SD of the protein, either way, in both replicates (recomputed)
[1] = compound: CS(=O)(=O)c1ccc(-c2cnc(N)c(C(=O)Nc3ccccc3)n2)cc1
In short: (§1)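 K562 cells at 2×10^6 cells/mL were treated with 10 μM compound for 30 min. Aliquots were heated for 3 min across 48°C-58°C, pooled, and extracted in PBS with 0.5% NP-40 at 4°C; soluble protein was the supernatant after 21,000xg for 90 min. Soluble protein was quantified by TMTpro 16plex LC-MS/MS with channel sums equalised, and reported as log2 fold change in thermal stability against DMSO controls, with values from duplicates.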

The chains behind the UniProt entries cited, without tags or fusion partners. Where a name states a change or a piece, a line headed by the entry shows the natural chain unless it says otherwise.
UniProt Q9UK23: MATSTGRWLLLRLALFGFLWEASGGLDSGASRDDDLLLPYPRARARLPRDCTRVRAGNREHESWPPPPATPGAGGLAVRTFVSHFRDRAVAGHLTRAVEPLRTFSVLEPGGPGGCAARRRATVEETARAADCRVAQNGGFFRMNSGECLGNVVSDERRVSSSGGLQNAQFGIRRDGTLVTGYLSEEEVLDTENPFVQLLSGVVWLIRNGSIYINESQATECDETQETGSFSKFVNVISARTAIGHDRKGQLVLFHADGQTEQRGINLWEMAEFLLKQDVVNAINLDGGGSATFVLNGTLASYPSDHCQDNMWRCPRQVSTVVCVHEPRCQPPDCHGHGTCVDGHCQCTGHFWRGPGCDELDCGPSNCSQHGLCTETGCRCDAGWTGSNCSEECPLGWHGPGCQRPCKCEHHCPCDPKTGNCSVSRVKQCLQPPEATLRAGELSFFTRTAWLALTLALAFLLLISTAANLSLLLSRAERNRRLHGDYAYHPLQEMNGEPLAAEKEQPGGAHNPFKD
UniProt O43181, whole entry, looked up: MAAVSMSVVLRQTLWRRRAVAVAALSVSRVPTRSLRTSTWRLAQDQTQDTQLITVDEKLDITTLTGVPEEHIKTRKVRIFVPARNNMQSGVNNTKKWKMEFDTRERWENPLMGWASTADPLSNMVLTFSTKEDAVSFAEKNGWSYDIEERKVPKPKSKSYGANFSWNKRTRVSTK
UniProt Q9BSU3: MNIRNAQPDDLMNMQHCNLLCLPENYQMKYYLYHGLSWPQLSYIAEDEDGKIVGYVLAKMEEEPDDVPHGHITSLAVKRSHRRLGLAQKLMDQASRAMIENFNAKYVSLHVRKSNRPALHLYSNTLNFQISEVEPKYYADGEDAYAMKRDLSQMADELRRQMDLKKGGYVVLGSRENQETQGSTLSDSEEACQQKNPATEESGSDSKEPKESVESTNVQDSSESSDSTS
UniProt P46934: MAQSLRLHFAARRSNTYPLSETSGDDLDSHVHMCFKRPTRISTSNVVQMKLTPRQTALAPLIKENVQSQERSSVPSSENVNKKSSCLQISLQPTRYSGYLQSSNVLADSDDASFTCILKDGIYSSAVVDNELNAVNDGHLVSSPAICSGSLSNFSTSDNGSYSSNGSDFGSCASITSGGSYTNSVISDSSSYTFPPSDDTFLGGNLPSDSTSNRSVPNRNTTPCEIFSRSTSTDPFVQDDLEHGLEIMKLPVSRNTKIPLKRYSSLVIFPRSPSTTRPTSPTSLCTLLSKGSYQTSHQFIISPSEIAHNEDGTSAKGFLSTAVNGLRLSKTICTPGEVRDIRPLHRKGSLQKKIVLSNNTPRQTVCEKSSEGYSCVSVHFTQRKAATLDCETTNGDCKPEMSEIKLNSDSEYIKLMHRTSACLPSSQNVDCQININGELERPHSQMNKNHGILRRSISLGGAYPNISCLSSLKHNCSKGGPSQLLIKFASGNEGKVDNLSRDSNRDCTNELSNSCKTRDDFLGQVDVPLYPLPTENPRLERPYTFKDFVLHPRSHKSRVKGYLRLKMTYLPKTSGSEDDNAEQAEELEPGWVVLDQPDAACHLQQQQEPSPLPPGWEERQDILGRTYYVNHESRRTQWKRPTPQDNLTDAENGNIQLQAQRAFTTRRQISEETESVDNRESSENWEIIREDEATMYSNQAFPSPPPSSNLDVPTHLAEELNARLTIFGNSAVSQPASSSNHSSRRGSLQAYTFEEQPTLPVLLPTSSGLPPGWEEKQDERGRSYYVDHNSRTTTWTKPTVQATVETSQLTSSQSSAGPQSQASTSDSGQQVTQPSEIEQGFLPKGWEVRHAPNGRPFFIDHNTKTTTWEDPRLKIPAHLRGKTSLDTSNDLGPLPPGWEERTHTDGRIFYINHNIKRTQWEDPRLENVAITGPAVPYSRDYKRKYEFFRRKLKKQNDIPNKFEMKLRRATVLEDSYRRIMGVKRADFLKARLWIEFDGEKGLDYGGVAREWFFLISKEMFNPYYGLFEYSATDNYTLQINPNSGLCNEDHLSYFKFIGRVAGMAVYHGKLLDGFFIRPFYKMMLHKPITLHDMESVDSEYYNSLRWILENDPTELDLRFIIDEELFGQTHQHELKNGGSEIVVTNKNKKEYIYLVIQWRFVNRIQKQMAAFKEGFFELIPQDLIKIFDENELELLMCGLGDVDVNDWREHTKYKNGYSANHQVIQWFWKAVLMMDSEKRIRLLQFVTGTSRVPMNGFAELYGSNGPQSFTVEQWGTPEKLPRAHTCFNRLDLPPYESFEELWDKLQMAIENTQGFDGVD
UniProt Q8NI08: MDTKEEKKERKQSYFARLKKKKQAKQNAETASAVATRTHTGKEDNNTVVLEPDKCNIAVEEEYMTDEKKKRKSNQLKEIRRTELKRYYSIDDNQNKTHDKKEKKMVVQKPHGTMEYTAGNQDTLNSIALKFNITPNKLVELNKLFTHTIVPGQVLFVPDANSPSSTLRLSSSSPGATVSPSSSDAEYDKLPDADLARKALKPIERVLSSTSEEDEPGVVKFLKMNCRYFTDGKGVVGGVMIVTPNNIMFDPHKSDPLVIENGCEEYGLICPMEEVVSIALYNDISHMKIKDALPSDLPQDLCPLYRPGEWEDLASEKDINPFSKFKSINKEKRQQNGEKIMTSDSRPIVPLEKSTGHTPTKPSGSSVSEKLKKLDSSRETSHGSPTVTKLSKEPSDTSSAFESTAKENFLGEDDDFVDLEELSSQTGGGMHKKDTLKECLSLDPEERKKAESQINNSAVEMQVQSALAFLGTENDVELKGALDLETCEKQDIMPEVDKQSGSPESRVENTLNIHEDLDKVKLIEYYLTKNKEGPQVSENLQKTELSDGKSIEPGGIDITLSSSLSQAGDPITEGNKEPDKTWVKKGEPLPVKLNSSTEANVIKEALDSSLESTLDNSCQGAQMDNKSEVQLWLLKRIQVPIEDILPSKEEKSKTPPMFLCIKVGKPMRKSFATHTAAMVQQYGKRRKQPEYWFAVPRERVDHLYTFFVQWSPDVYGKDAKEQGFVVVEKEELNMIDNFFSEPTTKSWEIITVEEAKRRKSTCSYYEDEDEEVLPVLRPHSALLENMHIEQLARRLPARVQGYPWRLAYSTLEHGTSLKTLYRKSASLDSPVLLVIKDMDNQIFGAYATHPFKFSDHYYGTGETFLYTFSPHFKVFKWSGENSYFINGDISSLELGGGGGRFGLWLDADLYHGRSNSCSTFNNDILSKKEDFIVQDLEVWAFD
UniProt O00483, whole entry, looked up: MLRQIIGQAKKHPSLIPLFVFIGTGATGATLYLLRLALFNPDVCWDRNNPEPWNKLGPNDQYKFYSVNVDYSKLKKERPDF
UniProt Q14686, whole entry, looked up: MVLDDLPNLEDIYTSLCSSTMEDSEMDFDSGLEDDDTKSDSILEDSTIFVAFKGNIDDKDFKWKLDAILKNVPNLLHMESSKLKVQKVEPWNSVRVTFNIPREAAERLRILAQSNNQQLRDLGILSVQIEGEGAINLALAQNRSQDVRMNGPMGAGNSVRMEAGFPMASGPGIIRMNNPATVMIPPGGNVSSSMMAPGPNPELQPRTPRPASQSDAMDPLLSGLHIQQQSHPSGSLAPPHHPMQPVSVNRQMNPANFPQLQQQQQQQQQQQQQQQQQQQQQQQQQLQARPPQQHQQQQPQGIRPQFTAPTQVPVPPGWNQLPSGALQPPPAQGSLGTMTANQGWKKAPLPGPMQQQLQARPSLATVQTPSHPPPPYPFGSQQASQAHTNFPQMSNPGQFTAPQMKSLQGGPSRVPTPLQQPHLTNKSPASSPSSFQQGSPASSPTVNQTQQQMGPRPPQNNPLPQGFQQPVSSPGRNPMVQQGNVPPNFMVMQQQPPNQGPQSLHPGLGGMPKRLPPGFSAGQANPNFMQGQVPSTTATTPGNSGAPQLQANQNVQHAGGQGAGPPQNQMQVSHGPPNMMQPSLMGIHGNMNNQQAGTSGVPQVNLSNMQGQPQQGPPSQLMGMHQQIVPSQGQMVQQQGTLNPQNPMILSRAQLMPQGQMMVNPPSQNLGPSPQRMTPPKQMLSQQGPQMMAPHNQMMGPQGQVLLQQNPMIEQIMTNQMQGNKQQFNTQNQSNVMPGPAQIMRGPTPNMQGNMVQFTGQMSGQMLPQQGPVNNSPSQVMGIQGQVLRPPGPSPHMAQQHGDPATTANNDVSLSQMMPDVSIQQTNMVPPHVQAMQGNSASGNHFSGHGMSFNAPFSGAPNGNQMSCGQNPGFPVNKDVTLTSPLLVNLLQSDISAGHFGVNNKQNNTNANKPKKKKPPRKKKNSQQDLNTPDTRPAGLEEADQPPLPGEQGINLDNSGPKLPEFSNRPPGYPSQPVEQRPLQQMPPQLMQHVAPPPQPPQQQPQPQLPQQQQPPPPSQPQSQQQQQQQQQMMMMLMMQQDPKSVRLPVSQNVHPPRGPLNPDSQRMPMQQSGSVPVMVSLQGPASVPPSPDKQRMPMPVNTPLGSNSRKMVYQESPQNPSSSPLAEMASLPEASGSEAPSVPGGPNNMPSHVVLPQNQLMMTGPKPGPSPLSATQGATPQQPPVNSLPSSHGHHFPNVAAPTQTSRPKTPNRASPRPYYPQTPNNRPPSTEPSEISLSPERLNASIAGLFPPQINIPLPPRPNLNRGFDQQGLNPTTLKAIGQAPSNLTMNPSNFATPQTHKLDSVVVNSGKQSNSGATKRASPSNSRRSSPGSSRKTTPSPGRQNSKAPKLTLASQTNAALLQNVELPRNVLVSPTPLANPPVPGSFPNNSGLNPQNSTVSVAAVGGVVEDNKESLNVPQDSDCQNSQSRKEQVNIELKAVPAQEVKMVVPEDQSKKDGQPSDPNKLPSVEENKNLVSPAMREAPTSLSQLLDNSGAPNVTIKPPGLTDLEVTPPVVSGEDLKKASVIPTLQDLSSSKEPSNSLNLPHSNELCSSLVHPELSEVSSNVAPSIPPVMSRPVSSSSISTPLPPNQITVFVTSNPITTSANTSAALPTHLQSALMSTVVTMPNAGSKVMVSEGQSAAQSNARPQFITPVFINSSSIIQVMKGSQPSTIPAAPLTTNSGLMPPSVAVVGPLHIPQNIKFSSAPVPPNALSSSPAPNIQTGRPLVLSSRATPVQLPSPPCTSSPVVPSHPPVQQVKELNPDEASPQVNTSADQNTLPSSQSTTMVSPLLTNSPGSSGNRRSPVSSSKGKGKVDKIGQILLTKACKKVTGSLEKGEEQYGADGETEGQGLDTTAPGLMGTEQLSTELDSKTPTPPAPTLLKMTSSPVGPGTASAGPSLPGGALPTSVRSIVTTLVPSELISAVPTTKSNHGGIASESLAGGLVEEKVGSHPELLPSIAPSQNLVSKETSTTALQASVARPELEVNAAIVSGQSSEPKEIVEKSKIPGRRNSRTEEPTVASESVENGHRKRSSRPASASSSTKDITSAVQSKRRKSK
UniProt O75251, whole entry, looked up: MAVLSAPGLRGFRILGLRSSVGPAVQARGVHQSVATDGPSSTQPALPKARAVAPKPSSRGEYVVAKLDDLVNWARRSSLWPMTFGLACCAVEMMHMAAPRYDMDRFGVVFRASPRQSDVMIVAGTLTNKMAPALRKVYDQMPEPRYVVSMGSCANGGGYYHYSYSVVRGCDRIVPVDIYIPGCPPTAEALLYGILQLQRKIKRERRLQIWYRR
UniProt Q96PU5: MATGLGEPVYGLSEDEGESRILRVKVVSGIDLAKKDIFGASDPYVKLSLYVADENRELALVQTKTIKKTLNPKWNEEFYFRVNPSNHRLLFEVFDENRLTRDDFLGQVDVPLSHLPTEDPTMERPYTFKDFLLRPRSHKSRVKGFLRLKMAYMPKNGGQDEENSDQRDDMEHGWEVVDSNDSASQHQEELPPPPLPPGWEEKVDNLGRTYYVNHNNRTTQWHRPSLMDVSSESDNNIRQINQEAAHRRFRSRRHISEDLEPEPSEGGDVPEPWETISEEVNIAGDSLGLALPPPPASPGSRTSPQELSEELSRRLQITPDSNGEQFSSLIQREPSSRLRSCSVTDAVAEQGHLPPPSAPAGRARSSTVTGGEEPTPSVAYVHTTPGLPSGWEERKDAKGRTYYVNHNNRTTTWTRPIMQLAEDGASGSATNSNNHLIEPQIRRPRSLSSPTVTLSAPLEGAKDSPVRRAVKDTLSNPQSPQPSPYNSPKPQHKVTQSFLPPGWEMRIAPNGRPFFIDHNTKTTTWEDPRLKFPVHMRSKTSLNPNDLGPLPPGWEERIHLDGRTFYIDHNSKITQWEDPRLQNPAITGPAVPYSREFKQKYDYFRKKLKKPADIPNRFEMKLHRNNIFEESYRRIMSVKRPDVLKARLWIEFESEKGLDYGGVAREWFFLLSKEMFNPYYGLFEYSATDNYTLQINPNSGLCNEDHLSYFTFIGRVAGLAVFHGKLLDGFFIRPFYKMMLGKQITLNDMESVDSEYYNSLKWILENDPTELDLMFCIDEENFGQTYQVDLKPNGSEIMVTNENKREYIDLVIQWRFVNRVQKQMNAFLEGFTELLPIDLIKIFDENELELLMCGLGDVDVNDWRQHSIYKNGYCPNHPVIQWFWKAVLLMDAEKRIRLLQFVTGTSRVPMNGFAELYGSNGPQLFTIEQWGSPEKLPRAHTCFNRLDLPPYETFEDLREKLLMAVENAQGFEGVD

[2] = compound: C[C@@H](Oc1cc(-c2cnn(C3CCNCC3)c2)cnc1N)c1c(Cl)ccc(F)c1Cl [crizotinib]
In short: as §1

[3] = compound: C[C@@H]1COCCN1C2=NC(=NC(=C2)C3(CC3)S(=O)(=O)C)C4=C5C=CNC5=CC=C4
In short: as §1

[4] = compound: C[C@H](C1=CC=C(C=C1)C(=O)NC2=C3C=CNC3=NC=C2)N
In short: as §1

[5] = compound: Cc1cc(Nc2cc(CN3CCOCC3)c3nc(C)c(Cc4ccc(Cl)cc4F)n3n2)n[nH]1 [gandotinib]
In short: as §1

[6] = compound: Cc1cc(SCc2sc(-c3ccc(C(F)(F)F)cc3)nc2C)ccc1OCC(=O)O
In short: as §1

[7] = compound: Cc1ccc(-n2nc(C(C)(C)C)cc2NC(=O)Nc2ccc(OCCN3CCOCC3)c3ccccc23)cc1 [doramapimod]
In short: as §1

[8] = compound: Cc1ccc(NC(=O)c2ccc(CN3CC[C@H](N(C)C)C3)c(C(F)(F)F)c2)cc1Nc1nccc(-c2cncnc2)n1 [bafetinib]
In short: as §1

[9] = compound: Cc1cccc(CC(=O)N2CCc3c2ccc(-c2cn(C)c4ncnc(N)c24)c3F)n1
In short: as §1

[10] = compound: Cc1cn(-c2cc(NC(=O)c3ccc(C)c(Nc4nccc(-c5cccnc5)n4)c3)cc(C(F)(F)F)c2)cn1 [nilotinib]
In short: as §1

[11] = compound: Cc1nc(Nc2n[nH]c3c2CN(C(=O)N[C@H](CN(C)C)c2ccccc2)C3(C)C)c2sccc2n1
In short: as §1

[12] = compound: Cc1nc(Nc2ncc(C(=O)Nc3c(C)cccc3Cl)s2)cc(N2CCN(CCO)CC2)n1 [dasatinib]
In short: as §1

[13] = compound: Cc1ncc(-c2ccnc(Nc3ccc(S(C)(=O)=O)cc3)n2)n1C(C)C
In short: as §1

[14] = compound: Cn1cc(-c2ccc3c(c2)CCN3C(=O)Cc2cccc(C(F)(F)F)c2)c2c(N)ncnc21
In short: as §1

[15] = compound: Cn1cncc1[C@@](N)(c1ccc(Cl)cc1)c1ccc2c(c1)c(-c1cccc(Cl)c1)cc(=O)n2C [tipifarnib]
In short: as §1

[16] = compound: FC(F)(F)c1ccc(/C=C/c2nc(COc3ccc(CCCCn4ccnn4)cc3)co2)cc1 [mubritinib]
In short: as §1

[17] = compound: Cc1ccc(C(=O)N(CCCN)[C@@H](c2nc3cc(Cl)ccc3c(=O)n2Cc2ccccc2)C(C)C)cc1 [ispinesib]
In short: as §1

[18] = compound: Cn1cc(-c2ccc3nnc(C(F)(F)c4ccc5ncccc5c4)n3n2)cn1
In short: as §1

[19] = compound: Cc1cc(Nc2cc(N3CCN(C)CC3)nc(Sc3ccc(NC(=O)C4CC4)cc3)n2)n[nH]1 [tozasertib]
In short: as §1

| Target | log2 fold change [1] | log2 fold change [2] | log2 fold change [3] | log2 fold change [4] | log2 fold change [5] | log2 fold change [6] | log2 fold change [7] | log2 fold change [8] | log2 fold change [9] | log2 fold change [10] | log2 fold change [11] | log2 fold change [12] | log2 fold change [13] | log2 fold change [14] | log2 fold change [15] | log2 fold change [16] | log2 fold change [17] | log2 fold change [18] | log2 fold change [19] |
| --- | --- | --- | --- | --- | --- | --- | --- | --- | --- | --- | --- | --- | --- | --- | --- | --- | --- | --- | --- |
| NAGPA (UniProt Q9UK23) | inactive: 0.017 | inactive: 0.178 | inactive: -0.078 | inactive: -0.014 | inactive: 0.024 | inactive: -0.079 | inactive: 0.072 | inactive: -0.076 | inactive: -0.142 | inactive: -0.082 | inactive: 0 | inactive: 0.053 | inactive: 0.014 | inactive: 0.023 | inactive: 0.245 | inactive: -0.091 | – | – | – |
| NDUFS4 (UniProt O43181) | inactive: -0.035 | inactive: -0.089 | inactive: -0.027 | inactive: 0.086 | inactive: 0.164 | inactive: -0.058 | inactive: 0.018 | inactive: -0.083 | inactive: 0.017 | inactive: 0.039 | inactive: 0.015 | inactive: 0.087 | inactive: -0.047 | inactive: 0.025 | inactive: 0.202 | inactive: 0.058 | inactive: -0.216 | inactive: -0.049 | – |
| NAA11 (UniProt Q9BSU3) | inactive: 0.027 | inactive: -0.065 | inactive: 0.006 | inactive: 0.086 | – | inactive: 0.114 | inactive: -0.037 | inactive: 0 | – | inactive: -0.093 | inactive: 0.015 | inactive: 0.059 | inactive: -0.003 | inactive: 0.102 | inactive: 0.011 | inactive: -0.081 | inactive: -0.009 | inactive: 0.176 | – |
| NDUFB7 (UniProt P17568) | inactive: 0.004 | inactive: 0.001 | inactive: 0.03 | inactive: -0.094 | inactive: -0.02 | inactive: -0.041 | inactive: 0.021 | inactive: 0 | inactive: 0.164 | inactive: -0.029 | inactive: 0.057 | inactive: 0.022 | inactive: -0.053 | inactive: 0.043 | inactive: -0.029 | inactive: -0.007 | inactive: 0.015 | inactive: 0.01 | – |
| NEDD4 isoform 4 (UniProt P46934) | inactive: -0.05 | inactive: -0.081 | inactive: 0.095 | inactive: -0.039 | inactive: -0.061 | inactive: -0.009 | inactive: -0.042 | inactive: -0.067 | inactive: 0.054 | inactive: -0.047 | inactive: -0.083 | inactive: -0.068 | inactive: 0.052 | inactive: -0.016 | inactive: -0.024 | inactive: 0.008 | inactive: -0.022 | inactive: 0.027 | – |
| NCOA7 (UniProt Q8NI08) | inactive: -0.003 | inactive: -0.17 | inactive: 0.012 | inactive: -0.034 | active: -0.238 | inactive: 0.031 | inactive: 0.082 | inactive: -0.017 | inactive: 0.154 | inactive: -0.044 | inactive: -0.046 | inactive: -0.144 | inactive: -0.039 | inactive: 0.085 | inactive: -0.125 | inactive: 0.054 | inactive: -0.037 | inactive: 0.004 | – |
| NDUFA4 (UniProt O00483) | inactive: -0.045 | inactive: 0.138 | inactive: 0.162 | inactive: -0.055 | inactive: -0.099 | inactive: 0.022 | inactive: 0.034 | inactive: -0.043 | inactive: 0.014 | inactive: 0.024 | inactive: 0.02 | inactive: 0.032 | inactive: -0.074 | inactive: 0.039 | inactive: 0.054 | inactive: 0.018 | inactive: 0.204 | inactive: 0.239 | – |
| NCOA6 (UniProt Q14686) | inactive: 0.109 | inactive: -0.039 | inactive: 0.138 | – | inactive: 0.006 | – | inactive: 0.175 | inactive: -0.053 | inactive: 0.059 | inactive: 0.021 | inactive: 0.006 | – | inactive: -0.001 | – | inactive: 0.048 | inactive: -0.018 | inactive: -0.195 | inactive: 0.007 | inactive: 0.058 |
| NCOR1 (UniProt O75376) | inactive: -0.078 | inactive: 0.017 | inactive: 0.15 | inactive: -0.064 | inactive: -0.007 | inactive: -0.061 | inactive: -0.044 | inactive: -0.009 | inactive: -0.056 | inactive: 0.182 | inactive: -0.046 | inactive: -0.091 | inactive: 0.058 | inactive: 0.041 | inactive: 0.103 | inactive: 0.041 | inactive: 0.004 | inactive: -0.049 | – |
| NDUFS7 (UniProt O75251) | inactive: 0.013 | inactive: -0.109 | inactive: 0.029 | inactive: -0.019 | inactive: -0.108 | inactive: 0.013 | inactive: -0.02 | inactive: -0.047 | inactive: 0.06 | inactive: -0.03 | inactive: 0.021 | inactive: 0.01 | inactive: -0.007 | inactive: 0.034 | inactive: -0.035 | inactive: 0.095 | inactive: -0.114 | inactive: 0.036 | – |
| NEDD4L (UniProt Q96PU5) | inactive: 0.015 | inactive: -0.005 | inactive: -0.071 | inactive: -0.105 | inactive: 0.015 | inactive: 0.083 | inactive: 0.026 | inactive: -0.037 | inactive: -0.062 | inactive: 0.015 | inactive: -0.134 | inactive: -0.103 | inactive: 0.031 | inactive: -0.097 | inactive: -0.022 | inactive: 0.01 | inactive: -0.037 | inactive: -0.078 | – |

Look-ups from the results shown.
NEDD4L (UniProt Q96PU5) | log2 fold change [4]: inactive: -0.105
NDUFS7 (UniProt O75251) | log2 fold change [16]: inactive: 0.095
